Article PMC7076256
Results are given in words; binding and its absence hold for the method and conditions named. In cells and extracts the contact can be indirect. Some entries that bind do so weakly or less than the wild type.

Chains of the proteins cited; added tags and fusions are not shown.
UniProt Q86TM6: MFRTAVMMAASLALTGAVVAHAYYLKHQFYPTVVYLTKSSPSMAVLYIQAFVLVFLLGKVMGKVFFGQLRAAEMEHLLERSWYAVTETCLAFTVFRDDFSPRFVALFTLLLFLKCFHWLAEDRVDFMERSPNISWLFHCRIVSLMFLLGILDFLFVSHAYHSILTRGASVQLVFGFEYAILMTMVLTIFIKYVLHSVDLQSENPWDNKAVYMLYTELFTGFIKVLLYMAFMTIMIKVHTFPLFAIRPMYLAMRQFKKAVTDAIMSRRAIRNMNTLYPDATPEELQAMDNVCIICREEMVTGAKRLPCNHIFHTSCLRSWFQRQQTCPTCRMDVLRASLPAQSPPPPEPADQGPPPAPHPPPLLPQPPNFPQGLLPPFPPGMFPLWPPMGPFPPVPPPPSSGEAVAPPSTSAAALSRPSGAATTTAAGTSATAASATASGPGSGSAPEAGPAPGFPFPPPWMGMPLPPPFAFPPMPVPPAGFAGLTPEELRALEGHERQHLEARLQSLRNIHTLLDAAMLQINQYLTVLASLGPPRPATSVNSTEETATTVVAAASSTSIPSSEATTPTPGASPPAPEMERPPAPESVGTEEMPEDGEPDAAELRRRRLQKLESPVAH

Biological target: T1, endogenous SIRT2 (human (endogenous in A549)) (UniProt Q8IXJ6)
T1 sequence: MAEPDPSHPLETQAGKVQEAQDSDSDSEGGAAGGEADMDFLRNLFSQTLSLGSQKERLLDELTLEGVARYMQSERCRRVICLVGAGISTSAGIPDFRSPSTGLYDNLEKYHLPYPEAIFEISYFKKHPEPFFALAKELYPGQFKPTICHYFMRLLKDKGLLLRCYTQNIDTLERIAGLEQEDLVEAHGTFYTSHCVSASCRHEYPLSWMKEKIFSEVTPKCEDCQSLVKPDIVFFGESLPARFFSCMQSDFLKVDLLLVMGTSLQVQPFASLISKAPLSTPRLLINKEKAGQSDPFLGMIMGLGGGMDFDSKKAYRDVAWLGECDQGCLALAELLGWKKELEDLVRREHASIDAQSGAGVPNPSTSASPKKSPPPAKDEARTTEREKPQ
Test: co-IP; endogenous proteins in A549 cells; normal mouse IgG (mIgG) as control

binding: binds
Substance: endogenous HRD1 (from UniProt Q86TM6 1-617)
